Results deposited as PubChem BioAssay AID1259425 (University of Nebraska Medical Center, 2018).
Screen: 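Compare each knockdown with KSR1 silencing using changes in marker transcripts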 (primary screen). Cell system: HCT116 human colon cancer cells. Knock-down reagent: siRNA pool against human genes, 50 nM siRNA. Measurement: 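mRNA of six signature genes measured together by branched-DNA assay after 50 nM siRNA pool, blank removed, divided by geometric mean of two housekeeping genes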. Reading the numbers: BNIP3L mRNA: higher = more BNIP3L transcript after knockdown.
Shown is one part, drawn at random, of about 14,000 reagents tested. Further read-outs or replicates are left out here. No sequences are given here. The record does not give: the time to read-out.

RHOBTB2 (Rho related BTB domain containing 2) scored BNIP3L mRNA, set 1 = 0.143.
APOL4 (apolipoprotein L4) showed BNIP3L mRNA, set 1 = 0.315.
CDC40 (cell division cycle 40) gave BNIP3L mRNA, set 1 = 0.0573.
Knock-down of HMGA2 (high mobility group AT-hook 2) resulted in: BNIP3L mRNA, set 1 = 0.122.
PMPCA (peptidase, mitochondrial processing subunit alpha) gave BNIP3L mRNA, set 1 = 0.0711.
After knock-down of ATRN (attractin) the results were BNIP3L mRNA, set 1 = 0.0874.
After knock-down of EXT1 (exostosin glycosyltransferase 1), the screen gave BNIP3L mRNA, set 1 = 0.133.
With knock-down of RNF24 (ring finger protein 24), the record shows BNIP3L mRNA, set 1 = 0.115.
Against ZHX2 (zinc fingers and homeoboxes 2) the deposit lists BNIP3L mRNA, set 1 = 0.0832.
After knock-down of TIMM21 (translocase of inner mitochondrial membrane 21), the record shows BNIP3L mRNA, set 1 = 0.141.
F3 (coagulation factor III, tissue factor) showed BNIP3L mRNA, set 1 = 0.0677.
Against ACTR2 (actin related protein 2), the values are BNIP3L mRNA, set 1 = 0.14.
Against RBM5 (RNA binding motif protein 5), the entry reads BNIP3L mRNA, set 1 = 0.216.
WNT8B (Wnt family member 8B) scored BNIP3L mRNA, set 1 = 0.0644.
Depletion of P2RX3 (purinergic receptor P2X 3) resulted in: BNIP3L mRNA, set 1 = 0.0823.
For MIF4GD (MIF4G domain containing) the deposit lists BNIP3L mRNA, set 1 = 0.173.

4 entries already listed, arranged by “BNIP3L mRNA, set 1”, highest first:
APOL4 (apolipoprotein L4) | BNIP3L mRNA, set 1: 0.315
HMGA2 (high mobility group AT-hook 2) | BNIP3L mRNA, set 1: 0.122
PMPCA (peptidase, mitochondrial processing subunit alpha) | BNIP3L mRNA, set 1: 0.0711
CDC40 (cell division cycle 40) | BNIP3L mRNA, set 1: 0.0573

The listing continues.
After knock-down of GPRC5C (G protein-coupled receptor class C group 5 member C) the results were BNIP3L mRNA, set 1 = 0.154.
For ECSIT (ECSIT signaling integrator) the deposit lists BNIP3L mRNA, set 1 = 0.223.
TSC22D4 (TSC22 domain family member 4) gave BNIP3L mRNA, set 1 = 0.159.
For ASPSCR1 (ASPSCR1 tether for SLC2A4, UBX domain containing) the deposit lists BNIP3L mRNA, set 1 = 0.11.
For ZRSR2P1 (ZRSR2 pseudogene 1) the deposit lists BNIP3L mRNA, set 1 = 0.0998.
Against SRD5A2 (steroid 5 alpha-reductase 2), the entry reads BNIP3L mRNA, set 1 = 0.0471.
STARD3 (StAR related lipid transfer domain containing 3) gave BNIP3L mRNA, set 1 = 0.0652.
With knock-down of GSTA1 (glutathione S-transferase alpha 1), the record shows BNIP3L mRNA, set 1 = 0.242.
Knock-down of TF (transferrin) resulted in: BNIP3L mRNA, set 1 = 0.028.
Depletion of COCH (cochlin) resulted in: BNIP3L mRNA, set 1 = 0.112.
With knock-down of PLA2G12B (phospholipase A2 group XIIB), the screen gave BNIP3L mRNA, set 1 = 0.201.
Depletion of MYH13 (myosin heavy chain 13) resulted in: BNIP3L mRNA, set 1 = 0.0661.
